This assay addresses HA-Myosin VI (rat) (UniProt D4A5I9). Description: co-IP; COS cells co-transfected with Myosin VI HA and GFP-MVIBD or GFP alone; lysate in 150 mM NaCl, 1 mM EDTA, 10 mM Tris pH 8.0, 1% NP40; goat anti-HA beads overnight at 4°C; washes with 0.1% NP40; blots with anti-HA and anti-GFP.

Protein sequences, listed by entry. Tags and fused reporters are not part of them. Lines headed by an entry give the natural chain unless they say otherwise; changes in a name come on top.
UniProt D4A5I9: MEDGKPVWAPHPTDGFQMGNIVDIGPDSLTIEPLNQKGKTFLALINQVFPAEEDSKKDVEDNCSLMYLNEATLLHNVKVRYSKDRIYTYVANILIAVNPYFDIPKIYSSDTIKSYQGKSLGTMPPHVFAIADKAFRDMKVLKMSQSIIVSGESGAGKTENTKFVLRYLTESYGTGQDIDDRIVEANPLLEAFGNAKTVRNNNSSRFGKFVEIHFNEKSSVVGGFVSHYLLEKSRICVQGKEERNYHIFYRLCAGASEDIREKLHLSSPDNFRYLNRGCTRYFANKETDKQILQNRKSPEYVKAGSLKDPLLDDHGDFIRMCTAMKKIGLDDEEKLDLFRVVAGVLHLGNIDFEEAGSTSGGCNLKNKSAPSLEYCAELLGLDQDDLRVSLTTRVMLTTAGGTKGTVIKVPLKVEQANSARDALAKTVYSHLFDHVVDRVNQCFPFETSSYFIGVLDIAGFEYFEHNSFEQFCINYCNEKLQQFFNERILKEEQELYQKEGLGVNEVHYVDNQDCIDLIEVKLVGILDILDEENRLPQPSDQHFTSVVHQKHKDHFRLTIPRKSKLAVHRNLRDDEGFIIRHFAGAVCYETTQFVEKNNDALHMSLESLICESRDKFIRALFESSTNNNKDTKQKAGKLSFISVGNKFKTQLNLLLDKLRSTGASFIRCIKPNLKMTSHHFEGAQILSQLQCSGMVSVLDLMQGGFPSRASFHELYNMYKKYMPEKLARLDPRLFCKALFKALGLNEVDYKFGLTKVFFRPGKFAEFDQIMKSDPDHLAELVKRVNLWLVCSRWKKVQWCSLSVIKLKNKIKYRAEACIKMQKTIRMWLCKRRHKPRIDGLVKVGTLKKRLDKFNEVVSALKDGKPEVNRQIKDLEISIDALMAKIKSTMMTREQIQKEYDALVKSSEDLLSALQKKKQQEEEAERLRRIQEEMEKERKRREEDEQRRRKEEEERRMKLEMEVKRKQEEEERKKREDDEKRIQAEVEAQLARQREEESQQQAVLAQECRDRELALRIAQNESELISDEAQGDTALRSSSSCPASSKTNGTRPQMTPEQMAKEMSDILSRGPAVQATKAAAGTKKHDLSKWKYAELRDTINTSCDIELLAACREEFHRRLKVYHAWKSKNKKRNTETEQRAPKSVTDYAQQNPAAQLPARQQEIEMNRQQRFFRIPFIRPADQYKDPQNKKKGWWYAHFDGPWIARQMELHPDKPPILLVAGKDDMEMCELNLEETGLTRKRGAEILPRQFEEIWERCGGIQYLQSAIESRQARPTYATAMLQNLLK
UniProt Q96CV9: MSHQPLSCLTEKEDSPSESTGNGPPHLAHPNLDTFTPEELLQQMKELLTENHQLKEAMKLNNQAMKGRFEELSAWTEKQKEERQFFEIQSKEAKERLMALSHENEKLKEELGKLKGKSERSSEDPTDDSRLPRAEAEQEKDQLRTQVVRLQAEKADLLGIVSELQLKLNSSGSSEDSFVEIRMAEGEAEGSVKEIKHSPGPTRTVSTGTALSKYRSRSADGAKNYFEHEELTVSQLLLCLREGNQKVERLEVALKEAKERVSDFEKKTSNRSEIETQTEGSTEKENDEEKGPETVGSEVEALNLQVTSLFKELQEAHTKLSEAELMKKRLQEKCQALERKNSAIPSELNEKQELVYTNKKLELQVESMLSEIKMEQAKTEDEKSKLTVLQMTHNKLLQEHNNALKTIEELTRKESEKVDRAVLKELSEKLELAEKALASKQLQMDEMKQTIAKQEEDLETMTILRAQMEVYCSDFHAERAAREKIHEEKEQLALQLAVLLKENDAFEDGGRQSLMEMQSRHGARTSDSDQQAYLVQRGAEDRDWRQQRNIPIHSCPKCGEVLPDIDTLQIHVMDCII

No constants are given. Whether binding was seen depends on the method and setting. In cells and extracts the contact can be indirect. Some results given as binding are weak or reduced against the parent protein; the word gives no strength.

Regarding “GFP-MVIBD (GFP fused to the Myosin VI binding domain: Optineurin 420-526 and DAB2 649-719 in tandem) (from UniProt Q96CV9 420-526; P98082 649-719)”, the binding result is on record as “binds”.

Values taken from article PMC3046960.
